According to article PMC10943123:
No constants are given. Whether binding was seen depends on the method and setting. Binding seen in cells or lysates may run through a third protein. Some entries that bind do so weakly or less than the wild type.

Chains of the proteins cited; added tags and fusions are not shown.
UniProt O75533: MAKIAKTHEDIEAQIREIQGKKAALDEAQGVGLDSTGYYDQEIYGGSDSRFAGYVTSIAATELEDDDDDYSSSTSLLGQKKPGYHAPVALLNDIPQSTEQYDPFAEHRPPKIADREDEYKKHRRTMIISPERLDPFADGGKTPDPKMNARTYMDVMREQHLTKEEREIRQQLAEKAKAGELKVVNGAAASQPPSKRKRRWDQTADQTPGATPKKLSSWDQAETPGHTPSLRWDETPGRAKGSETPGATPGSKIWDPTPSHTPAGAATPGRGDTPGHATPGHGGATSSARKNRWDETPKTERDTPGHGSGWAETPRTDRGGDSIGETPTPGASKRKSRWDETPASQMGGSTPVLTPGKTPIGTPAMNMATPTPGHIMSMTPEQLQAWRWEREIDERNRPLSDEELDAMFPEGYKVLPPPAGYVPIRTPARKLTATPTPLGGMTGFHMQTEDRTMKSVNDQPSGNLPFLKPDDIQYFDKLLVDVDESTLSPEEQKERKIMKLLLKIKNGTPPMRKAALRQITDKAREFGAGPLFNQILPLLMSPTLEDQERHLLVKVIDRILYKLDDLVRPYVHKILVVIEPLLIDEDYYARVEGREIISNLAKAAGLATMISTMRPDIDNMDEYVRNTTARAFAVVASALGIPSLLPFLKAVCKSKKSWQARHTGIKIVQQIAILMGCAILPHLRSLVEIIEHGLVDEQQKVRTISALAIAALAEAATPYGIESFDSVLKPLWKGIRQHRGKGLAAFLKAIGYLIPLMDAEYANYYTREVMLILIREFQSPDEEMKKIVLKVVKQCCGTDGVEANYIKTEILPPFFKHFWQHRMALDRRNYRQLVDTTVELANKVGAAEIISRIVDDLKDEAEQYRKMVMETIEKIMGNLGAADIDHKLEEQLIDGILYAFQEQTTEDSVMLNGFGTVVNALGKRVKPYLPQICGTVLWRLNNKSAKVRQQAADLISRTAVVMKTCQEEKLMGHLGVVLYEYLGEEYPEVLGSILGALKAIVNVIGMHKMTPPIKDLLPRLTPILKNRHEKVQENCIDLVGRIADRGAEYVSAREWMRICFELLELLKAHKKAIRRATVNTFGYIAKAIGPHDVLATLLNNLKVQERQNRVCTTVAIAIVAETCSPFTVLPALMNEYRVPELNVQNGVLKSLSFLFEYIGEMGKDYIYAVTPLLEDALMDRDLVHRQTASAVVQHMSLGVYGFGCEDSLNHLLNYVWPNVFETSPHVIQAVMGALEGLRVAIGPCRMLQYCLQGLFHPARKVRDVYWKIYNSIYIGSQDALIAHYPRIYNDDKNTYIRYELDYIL
UniProt Q13435: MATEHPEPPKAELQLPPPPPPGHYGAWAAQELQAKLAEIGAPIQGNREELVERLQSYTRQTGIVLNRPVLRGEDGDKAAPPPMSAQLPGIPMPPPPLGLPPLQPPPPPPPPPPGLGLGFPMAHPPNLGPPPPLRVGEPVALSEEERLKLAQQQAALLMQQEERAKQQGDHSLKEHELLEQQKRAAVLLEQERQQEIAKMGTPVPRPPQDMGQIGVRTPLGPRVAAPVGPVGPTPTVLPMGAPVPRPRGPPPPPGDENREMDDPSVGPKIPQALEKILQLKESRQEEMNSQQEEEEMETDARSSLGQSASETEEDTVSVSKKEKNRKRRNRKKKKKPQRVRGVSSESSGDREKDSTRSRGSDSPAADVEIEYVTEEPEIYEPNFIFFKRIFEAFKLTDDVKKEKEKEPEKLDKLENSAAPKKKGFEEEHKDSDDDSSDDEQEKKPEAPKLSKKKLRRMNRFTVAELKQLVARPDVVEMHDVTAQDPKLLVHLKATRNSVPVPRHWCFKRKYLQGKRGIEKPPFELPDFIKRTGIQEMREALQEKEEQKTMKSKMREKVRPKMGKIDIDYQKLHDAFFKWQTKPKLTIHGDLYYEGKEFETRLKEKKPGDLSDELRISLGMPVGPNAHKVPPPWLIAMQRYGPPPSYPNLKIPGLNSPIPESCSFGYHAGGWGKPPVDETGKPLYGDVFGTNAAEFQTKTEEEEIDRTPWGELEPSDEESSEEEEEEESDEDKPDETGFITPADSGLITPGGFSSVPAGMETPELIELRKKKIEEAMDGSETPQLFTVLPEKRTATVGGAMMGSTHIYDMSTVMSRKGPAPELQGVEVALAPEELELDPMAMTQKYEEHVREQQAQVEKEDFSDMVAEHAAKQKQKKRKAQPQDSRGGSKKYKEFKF
UniProt P55081: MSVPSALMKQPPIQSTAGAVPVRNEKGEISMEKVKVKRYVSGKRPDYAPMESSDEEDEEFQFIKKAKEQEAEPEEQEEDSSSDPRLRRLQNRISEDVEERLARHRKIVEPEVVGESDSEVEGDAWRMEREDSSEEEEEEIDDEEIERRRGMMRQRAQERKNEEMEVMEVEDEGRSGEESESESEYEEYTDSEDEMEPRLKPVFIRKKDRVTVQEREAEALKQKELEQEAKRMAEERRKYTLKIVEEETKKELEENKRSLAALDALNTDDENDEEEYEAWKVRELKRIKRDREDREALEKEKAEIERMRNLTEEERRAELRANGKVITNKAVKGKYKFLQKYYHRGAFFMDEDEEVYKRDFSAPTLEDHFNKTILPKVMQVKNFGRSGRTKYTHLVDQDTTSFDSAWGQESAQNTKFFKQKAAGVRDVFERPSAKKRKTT
UniProt Q13123: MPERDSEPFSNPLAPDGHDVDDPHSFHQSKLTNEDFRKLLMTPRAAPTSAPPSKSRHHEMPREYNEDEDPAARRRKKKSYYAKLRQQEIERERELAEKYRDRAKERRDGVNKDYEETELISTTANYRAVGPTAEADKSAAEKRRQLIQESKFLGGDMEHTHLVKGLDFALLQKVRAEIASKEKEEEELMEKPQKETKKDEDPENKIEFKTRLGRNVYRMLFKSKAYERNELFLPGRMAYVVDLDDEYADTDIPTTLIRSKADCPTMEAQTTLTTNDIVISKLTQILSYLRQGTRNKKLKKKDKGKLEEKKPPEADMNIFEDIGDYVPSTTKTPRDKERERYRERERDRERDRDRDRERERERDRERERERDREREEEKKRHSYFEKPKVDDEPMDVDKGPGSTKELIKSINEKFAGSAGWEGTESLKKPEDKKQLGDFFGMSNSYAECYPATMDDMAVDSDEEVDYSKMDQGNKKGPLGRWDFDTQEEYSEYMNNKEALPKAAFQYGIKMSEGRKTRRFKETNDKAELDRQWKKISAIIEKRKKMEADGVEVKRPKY

Assays:
[1] = target: SF3B1 (human (endogenous in HeLa)) (UniProt O75533); assay: cross-linking; affinity-purified B complex dimers crosslinked with 350 μM BS3 for 35 min at 18 °C, glycerol gradient, trypsin digest, mass spectrometry, pLink 2.3.9 (CXMS)
[2] = target: SF3B2 (human (endogenous in HeLa)) (UniProt Q13435); assay: as above

Row | Substance | binding [1] | binding [2]
1 | MFAP1 (from UniProt P55081 1-439) | binds | –
2 | RED (from UniProt Q13123 1-557) | binds | binds
